According to PMC10746174:
No constants are given. Whether binding was seen depends on the method and setting. In cells and extracts the contact can be indirect. Binding calls can cover weak binding; strength is not graded here.

Chains of the proteins cited; added tags and fusions are not shown. Lines headed by an entry give the natural chain unless they say otherwise; changes in a name come on top.
UniProt P33927: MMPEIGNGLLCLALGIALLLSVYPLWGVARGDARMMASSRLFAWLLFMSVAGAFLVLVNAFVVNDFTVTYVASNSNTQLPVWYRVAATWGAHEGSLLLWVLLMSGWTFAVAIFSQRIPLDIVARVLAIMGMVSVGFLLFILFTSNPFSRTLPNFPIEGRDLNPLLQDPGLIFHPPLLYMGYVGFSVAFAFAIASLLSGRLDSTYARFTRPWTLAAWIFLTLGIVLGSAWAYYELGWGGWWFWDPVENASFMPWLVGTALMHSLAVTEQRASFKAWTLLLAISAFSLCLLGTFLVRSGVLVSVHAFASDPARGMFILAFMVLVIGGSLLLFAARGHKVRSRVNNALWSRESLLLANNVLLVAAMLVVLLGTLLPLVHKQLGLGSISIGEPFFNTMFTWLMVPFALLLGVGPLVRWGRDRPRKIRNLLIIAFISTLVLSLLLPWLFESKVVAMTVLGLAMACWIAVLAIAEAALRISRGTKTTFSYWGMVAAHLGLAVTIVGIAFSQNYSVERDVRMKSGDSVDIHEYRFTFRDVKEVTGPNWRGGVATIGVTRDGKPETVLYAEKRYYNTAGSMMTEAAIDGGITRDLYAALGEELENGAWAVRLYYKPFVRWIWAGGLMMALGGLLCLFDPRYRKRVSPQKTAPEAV

Experiments:
Assay in all cases: pull-down; CcmF:6×His (C-terminal tag) co-expressed with the complete System I pathway in E. coli Δccm (RK103) and affinity purified; 5 µg of purified protein separated by SDS-PAGE; immunoblots with α-CcmH and α-CcmE, heme stain for holoCcmE
[1] = molecular target: CcmF:6×His E233A (E. coli) (UniProt P33927)
[2] = molecular target: CcmF:6×His V245A (E. coli) (UniProt P33927)
[3] = molecular target: CcmF:6×His S249A (E. coli) (UniProt P33927)
[4] = molecular target: CcmF:6×His G238A (E. coli) (UniProt P33927)
[5] = molecular target: CcmF:6×His G238C (E. coli) (UniProt P33927)
[6] = molecular target: CcmF:6×His S249C (E. coli) (UniProt P33927)
[7] = molecular target: CcmF:6×His W240C (E. coli) (UniProt P33927)
[8] = molecular target: CcmF:6×His W229A (E. coli) (UniProt P33927)
[9] = molecular target: CcmF:6×His D243A (E. coli) (UniProt P33927)
[10] = molecular target: CcmF:6×His W236A (E. coli) (UniProt P33927)
[11] = molecular target: CcmF:6×His E246A (E. coli) (UniProt P33927)
[12] = molecular target: CcmF:6×His P244A (E. coli) (UniProt P33927)
[13] = molecular target: CcmF:6×His G235A (E. coli) (UniProt P33927)
[14] = molecular target: CcmF:6×His Y232C (E. coli) (UniProt P33927)
[15] = molecular target: CcmF:6×His E246C (E. coli) (UniProt P33927)
[16] = molecular target: CcmF:6×His V245C (E. coli) (UniProt P33927)
[17] = molecular target: CcmF:6×His W239A (E. coli) (UniProt P33927)
[18] = molecular target: CcmF:6×His W236C (E. coli) (UniProt P33927)

Measured: binding

B1: CcmH (protein, UniProt P0ABM9 19-350)
chain: TIDVLQFKDEAQEQQFRQLTEELRCPKCQNNSIADSNSMIATDLRQKVYELMQEGKSKKEIVDYMVARYGNFVTYDPPLTPLTVLLWVLPVVAIGIGGWVIYARSRRRVRVVPEAFPEQSVPEGKRAGYVVYLPGIVVALIVAGVSYYQTGNYQQVKIWQQATAQAPALLDRALDPKADPLNEEEMSRLALGMRTQLQKNPGDIEGWIMLGRVGMALGNASIATDAYATAYRLDPKNSDAALGYAEALTRSSDPNDNRLGGELLRQLVRTDHSNIRVLSMYAFNAFEQQRFGEAVAAWEMMLKLLPANDTRRAVIERSIAQAMQHLSPQESK
binds: all assays above
